These are yes or no findings as the source states them, for the method shown. Binding seen in cells or lysates may run through a third protein. Binding can be weak; no strength is given.
Target: Rp1-D21 (maize)
Test: co-IP; EGFP- and 3×HA-tagged constructs transiently co-expressed in N. benthamiana, leaves collected at 30 hpi; extract in 50 mM HEPES pH 7.5, 50 mM NaCl, 10 mM EDTA, 0.5% Triton, 4 mM DTT; immunoprecipitated with anti-GFP microbeads 3 hrs at 4°C, washed with 150 mM NaCl buffer; blots with anti-GFP and anti-HA

Substance | binding
Rp1-D (from UniProt Q9SWU0) | no binding
Rp1-dp2 (from UniProt A0A0D3MN54) | binds
